{"source": "PubChem BioAssay AID1508600", "about": "(Functional Genomics Laboratory (NCATS/FGL), 2020)", "note": "Out of some 53,000 sequences screened, about 3,700 (7%) were called active.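 The calls were made as follows: active = gene knockdowns whose robust z-score for IL-1 alpha signal is at least 2 or at most -2, so actives lie on both sides; inactive = the rest.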 The list shows a part of the results.", "data": [{"assay": "Components of the Cytosolic LPS Sensing Pathway: Gene Identification via Genome-wide siRNA Screen;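 also: robust z of the log signal after scaling to non-targeting control siRNA wells of the plate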", "conditions": "RAW264.7 macrophages, IL-1a HTRF, actives lie on both sides, screened at 100 nM (by protocol), cells primed 5 h with Pam3CSK4 first", "outline": "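Cells (RAW264.7, 1×10^4 per well) were transfected with siRNA at 100 nM and cultured 48h at 37 degrees C. Pam3CSK4 was added for 5 hours; LipidA transfection followed for 24 hour. IL-1a was then measured by HTRF.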", "values": [{"sequence": "CGAUGGGUAGUGUUUUAACTT against Paqr7", "z-score": "inactive: 1.11"}, {"sequence": "GGAUCUGAAGGAAUACUUUTT against Lmf1", "z-score": "inactive: 1.69"}, {"sequence": "GGAAGAGGAGCAAAAGCCATT against Slc34a1", "z-score": "inactive: -0.316"}, {"sequence": "GGGAGGAUGGUGGUAUAACTT against Angptl2", "z-score": "inactive: -0.331"}, {"sequence": "CGUCAUUCACCCUAAGCCATT against Osr1", "z-score": "inactive: 1.16"}, {"sequence": "GGCAAGAAAUACAAAGGAUTT against Pi4kb", "z-score": "inactive: 0.394"}, {"sequence": "GGUUGUUAGAGAUUUGACCTT against Kctd12", "z-score": "inactive: -0.208"}, {"sequence": "GCUCUACCUUCGCUGGAAATT against Slc7a6", "z-score": "active: 2.17"}, {"sequence": "GCGGUUCGCAUUUGUGAUGTT against Efl1", "z-score": "inactive: -0.493"}, {"sequence": "GCACUUACCCACUCUGAACTT against Mrtfb", "z-score": "inactive: -1.16"}, {"sequence": "GGCACAGACGGAUCAACAGTT against Clcn3", "z-score": "inactive: -0.725"}, {"sequence": "GGCAGUUGUUAAAAUCUGCTT against Asnsd1", "z-score": "inactive: 0.471"}, {"sequence": "GGAAAUACGGCAGAACCCUTT against Kcnk9", "z-score": "active: -2.54"}, {"sequence": "CCUACUCAAAUGAAGUUGUTT against Cdk17", "z-score": "inactive: -0.384"}, {"sequence": "CGCAACAGCAAAUCAUCAGTT against Ap3s1", "z-score": "inactive: 0.0839"}, {"sequence": "GGAGAAGCUAAGUAACUUCTT against Med19", "z-score": "inactive: 0.5"}, {"sequence": "GGAUCUCUCACUGAUGCCATT against Itprid2", "z-score": "inactive: -0.608"}, {"sequence": "GGUGUAAGACGUGUGGAGATT against Yju2", "z-score": "inactive: -0.277"}, {"sequence": "GGCAGCAGCACUGAUUACUTT against Gjc2", "z-score": "active: -2.17"}, {"sequence": "GCUUAACAAUUUCUCCCGCTT against Spef2", "z-score": "inactive: 0.985"}, {"sequence": "CGUGAACAUUGACCCAGAATT against Cd300ld3", "z-score": "inactive: 1.23"}, {"sequence": "GGUACUUCACAAUGGACAGTT against Zcchc9", "z-score": "inactive: 0.951"}, {"sequence": "GGAACUGGAAUCAAGACCATT against Smg8", "z-score": "inactive: -1.09"}, {"sequence": "GGAUUAUGGGAGAUAUAAATT against Hapln1", "z-score": "inactive: -0.672"}, {"sequence": "GGAAAUUGGUCCAGUUAUUTT against Magee1", "z-score": "inactive: 1.37"}, {"sequence": "GCUCUUAAAAACUCAGCUUTT against Gpat3", "z-score": "inactive: -0.0726"}, {"sequence": "GGAGCAUCCUGUUCUUCUATT against Actr1b", "z-score": "inactive: 0.233"}, {"sequence": "GGGCAGUCUGAUAGAGGAUTT against Adam30", "z-score": "inactive: -0.632"}, {"sequence": "GGAUGAUCCAAGCAAUUGATT against Adcy2", "z-score": "inactive: -0.316"}, {"sequence": "CGUGGAACCUGAAUAAUGATT against Aipl1", "z-score": "inactive: 0.975"}, {"sequence": "ACUUCACCAUGGUACCCGGTT against Tspo", "z-score": "inactive: 1.06"}, {"sequence": "GACUUCUUCCUUUGCUAACTT against Cd1d2", "z-score": "inactive: 0.416"}, {"sequence": "GGACUGCUACUUUUAUUUUTT against Serpinb9e", "z-score": "inactive: 1.1"}, {"sequence": "GUUAUCAGGAAGGAAAGCCTT against Sdhaf4", "z-score": "inactive: 0.248"}, {"sequence": "GCUGUCGAUAGAAAAAAUCTT against Scml2", "z-score": "inactive: 0.566"}, {"sequence": "CCCAUACAAAGCACUUACATT against Otub1", "z-score": "inactive: 0.589"}, {"sequence": "GGAAGUGGUAACUGUGACATT against Cmtm2a", "z-score": "inactive: -0.433"}, {"sequence": "GGAGGGCAGAUCUACGAUGTT against Aars", "z-score": "inactive: 0.182"}, {"sequence": "GGUCUUACUCAAAAACCAATT against Tmem268", "z-score": "inactive: -0.95"}, {"sequence": "GGACUCUCCCAAGUGCAAUTT against Pla2g10", "z-score": "inactive: 0.113"}, {"sequence": "CCAUUAACUCUUUGAGUAUTT against Omg", "z-score": "inactive: 0.321"}, {"sequence": "GGAGUUAGAGCUGAGGUUATT against Cela1", "z-score": "inactive: 0.633"}, {"sequence": "GGCUGCAUGACCCAAUUGUTT against Olfr1221", "z-score": "inactive: 0.812"}, {"sequence": "GGGUCUUCAGUAUUAACACTT against Yae1d1", "z-score": "active: 2.62"}, {"sequence": "GGCUUGAAUGCCACAGCUGTT against Slc26a6", "z-score": "inactive: -0.104"}, {"sequence": "CCCUAAGGAUGGUAUAUUUTT against Gm11507", "z-score": "inactive: -0.0561"}, {"sequence": "GGCCAAAAAGGAGGCACCATT against Rps15", "z-score": "inactive: 0.662"}, {"sequence": "GGCUAUCCAGAGAUACGUGTT against Snrnp25", "z-score": "inactive: -0.571"}, {"sequence": "CCUAACUGAAUUUUUCGUGTT against Cse1l", "z-score": "inactive: -1.14"}, {"sequence": "GGGCUGUACUAAAAACUAATT against Olfr93", "z-score": "inactive: -0.145"}, {"sequence": "GGGAGUUCAAGCCAGUUAUTT against Slc46a1", "z-score": "inactive: -0.629"}, {"sequence": "GGACCUACAUAACAAGCUUTT against Thnsl2", "z-score": "inactive: 1.83"}, {"sequence": "GCACUGAGCUGUGAAAACATT against Mzf1", "z-score": "inactive: 0.179"}, {"sequence": "GCCAAAUGUGCGUCAUCUATT against Zdhhc25", "z-score": "active: -2.54"}, {"sequence": "GACGGACUGUCCUCUAACGTT against Baalc", "z-score": "inactive: -0.823"}, {"sequence": "GGGAUGCAUUAUUAUUUACTT against Heg1", "z-score": "inactive: 1.39"}, {"sequence": "GGCUGAAAAUUCCAGACUGTT against Krt39", "z-score": "inactive: -1.22"}, {"sequence": "CCCUGACCGAAACCCUCGCTT against LOC547349", "z-score": "inactive: 0.153"}, {"sequence": "GGAAGAGAAGGAGAAUGAATT against Patl2", "z-score": "inactive: -0.152"}, {"sequence": "CGACCAUUCCUUUGAGUUATT against Atl1", "z-score": "active: 3.09"}, {"sequence": "GCAAAAAGGCAGUAUUCUATT against Atp23", "z-score": "inactive: 0.449"}, {"sequence": "GGAAACAACCAUCGAGGUUTT against Cyp4x1", "z-score": "inactive: -0.31"}, {"sequence": "CGUGAACAUUUCCUACAUATT against Ces3b", "z-score": "inactive: 0.584"}, {"sequence": "GGAGAGAUGGUGGAUUAUATT against Col13a1", "z-score": "inactive: 1.15"}, {"sequence": "GCAGCCUCGUUUAACUAAATT against Gpbp1", "z-score": "inactive: -0.802"}, {"sequence": "GCAUAAGCCACACCCUCUGTT against Cops7a", "z-score": "inactive: 1.03"}, {"sequence": "CGUAUAUGUAUGCUACAUATT against Cend1", "z-score": "inactive: -0.805"}, {"sequence": "GGUGGACUCGCUGAAGAGUTT against Krt1", "z-score": "inactive: -1.31"}, {"sequence": "GGAUGCUUAUGAGGAAAUATT against 1700019D03Rik", "z-score": "inactive: -1.72"}, {"sequence": "GGAACUAUGCCUCUCGUAUTT against Th", "z-score": "inactive: -0.67"}, {"sequence": "GGAAGAGCUGAGAUUCGCCTT against Atf3", "z-score": "inactive: -0.511"}, {"sequence": "GGGAAUGACUCCACAUUGCTT against Limd1", "z-score": "active: 2.01"}, {"sequence": "CGUGGUUGUUACCUCCACATT against Stfa2l1", "z-score": "inactive: -0.411"}, {"sequence": "GGUGGAUCAGGAAGUGAACTT against Itgb8", "z-score": "inactive: -0.316"}, {"sequence": "GACCCUUGUUCUUAGCCUUTT against Defa-rs2", "z-score": "inactive: 1.1"}, {"sequence": "GGUGACUUUCUUUAAUCAGTT against Nt5c", "z-score": "inactive: -1.04"}, {"sequence": "GUGUGUGAUGUUCCCUAUGTT against H2-K1", "z-score": "inactive: -0.604"}, {"sequence": "GCACCUGUAGUUUUAAGCGTT against Traf3", "z-score": "inactive: -0.144"}, {"sequence": "CCUUUACGAACCUUCUGUCTT against Tmem237", "z-score": "inactive: -1.11"}, {"sequence": "CCAUGACUACAACACAUACTT against Ndufv3", "z-score": "active: -3.07"}, {"sequence": "CCCUACAUUCUGUAUAGCCTT against Olfr474", "z-score": "inactive: 1.05"}, {"sequence": "GAGCUGUUGUAUCAACUCUTT against Gm10037", "z-score": "inactive: -0.0127"}, {"sequence": "GGUGAGAAAGAUUGAGAUUTT against Pdgfb", "z-score": "inactive: -0.163"}, {"sequence": "GGCUGUCAUCAUGUUGGUUTT against Slc5a4a", "z-score": "inactive: -0.336"}, {"sequence": "GGUAAAAUGUACUCAAUGUTT against Hexim1", "z-score": "inactive: 0.366"}, {"sequence": "GAAAUGUUUGACACAACCUTT against Raet1b", "z-score": "inactive: 0.69"}, {"sequence": "GCAGUUACAGGAAAUCGAGTT against Cdr2", "z-score": "inactive: -0.746"}, {"sequence": "GCCAUCUAGCUACUGACACTT against Tubb3", "z-score": "inactive: 0.681"}, {"sequence": "GGGAUCAGUCUACACGUCGTT against Irx2", "z-score": "inactive: -1.32"}, {"sequence": "GGACAACAAGGCUUGCUACTT against Plxna2", "z-score": "inactive: 0.215"}, {"sequence": "GGUGACCUAUGCAUAUAUCTT against Septin11", "z-score": "inactive: 0.395"}, {"sequence": "GGGCAUCUCAGAUUUAGCUTT against Cct3", "z-score": "inactive: -0.0572"}, {"sequence": "CCUCAUGGUGAUGAUAUCCTT against Taar6", "z-score": "inactive: -1.35"}, {"sequence": "CCACUUUAAAGGCUCUUCUTT against H3c8", "z-score": "active: -2.17"}, {"sequence": "GGUAUGUAGGAAUUACAGUTT against AI606181", "z-score": "active: 2.49"}, {"sequence": "CCAUAAAAUCAUCAUGAGATT against Atg12", "z-score": "inactive: -0.682"}, {"sequence": "GCCUCAAAAGACAAGGUGUTT against Prr14", "z-score": "inactive: -0.0313"}, {"sequence": "GGCUAAGUUUUUAAAGAACTT against Ncald", "z-score": "inactive: -1.25"}, {"sequence": "GGACUAUUACACAUUAGUGTT against Rbp3", "z-score": "inactive: -1.41"}, {"sequence": "CCAACAAGCCUAAUUAAAGTT against Thumpd3", "z-score": "inactive: -0.896"}, {"sequence": "GGUGGCUGUAAAGAAGUUATT against Map3k20", "z-score": "inactive: 0.513"}, {"sequence": "GGAAGACCUUCUUAAACACTT against Prokr2", "z-score": "inactive: 1.26"}, {"sequence": "GCCACGUACAUCCACUCUCTT against Pxmp4", "z-score": "inactive: -0.773"}, {"sequence": "GGAGUAUUUAUCAACGGCATT against Pax3", "z-score": "inactive: -1.07"}, {"sequence": "GGAUAGGAAGAAAAUGAAGTT against Slfn2", "z-score": "active: -2.83"}, {"sequence": "CCUUUUUCGGCUUGUAUAATT against Fasl", "z-score": "inactive: 0.769"}, {"sequence": "GGUCAAAGAUGGAGUAAAUTT against Tmem87a", "z-score": "active: -2.31"}]}]}
